2 substances from publication PMC7485976 can be followed below.

By UniProt entry, the sequences of proteins in these tests, tags left out. Residues count along the entry.
UniProt P28159: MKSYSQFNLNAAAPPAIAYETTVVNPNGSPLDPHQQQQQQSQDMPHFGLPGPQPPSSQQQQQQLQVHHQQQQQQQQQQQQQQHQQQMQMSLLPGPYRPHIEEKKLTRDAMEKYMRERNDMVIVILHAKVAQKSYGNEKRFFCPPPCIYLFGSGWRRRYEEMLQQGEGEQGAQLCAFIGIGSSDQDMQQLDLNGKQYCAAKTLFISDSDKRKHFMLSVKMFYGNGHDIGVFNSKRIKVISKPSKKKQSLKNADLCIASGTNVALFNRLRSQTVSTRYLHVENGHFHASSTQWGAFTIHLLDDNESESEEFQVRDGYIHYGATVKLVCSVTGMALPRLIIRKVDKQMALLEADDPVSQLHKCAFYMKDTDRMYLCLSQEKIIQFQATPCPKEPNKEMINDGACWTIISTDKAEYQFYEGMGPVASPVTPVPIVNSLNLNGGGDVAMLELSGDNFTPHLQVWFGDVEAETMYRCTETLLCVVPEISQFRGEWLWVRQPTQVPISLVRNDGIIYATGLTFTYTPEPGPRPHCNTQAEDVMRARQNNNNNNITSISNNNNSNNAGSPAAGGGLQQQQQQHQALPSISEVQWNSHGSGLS
UniProt P13002, residues 551-1333: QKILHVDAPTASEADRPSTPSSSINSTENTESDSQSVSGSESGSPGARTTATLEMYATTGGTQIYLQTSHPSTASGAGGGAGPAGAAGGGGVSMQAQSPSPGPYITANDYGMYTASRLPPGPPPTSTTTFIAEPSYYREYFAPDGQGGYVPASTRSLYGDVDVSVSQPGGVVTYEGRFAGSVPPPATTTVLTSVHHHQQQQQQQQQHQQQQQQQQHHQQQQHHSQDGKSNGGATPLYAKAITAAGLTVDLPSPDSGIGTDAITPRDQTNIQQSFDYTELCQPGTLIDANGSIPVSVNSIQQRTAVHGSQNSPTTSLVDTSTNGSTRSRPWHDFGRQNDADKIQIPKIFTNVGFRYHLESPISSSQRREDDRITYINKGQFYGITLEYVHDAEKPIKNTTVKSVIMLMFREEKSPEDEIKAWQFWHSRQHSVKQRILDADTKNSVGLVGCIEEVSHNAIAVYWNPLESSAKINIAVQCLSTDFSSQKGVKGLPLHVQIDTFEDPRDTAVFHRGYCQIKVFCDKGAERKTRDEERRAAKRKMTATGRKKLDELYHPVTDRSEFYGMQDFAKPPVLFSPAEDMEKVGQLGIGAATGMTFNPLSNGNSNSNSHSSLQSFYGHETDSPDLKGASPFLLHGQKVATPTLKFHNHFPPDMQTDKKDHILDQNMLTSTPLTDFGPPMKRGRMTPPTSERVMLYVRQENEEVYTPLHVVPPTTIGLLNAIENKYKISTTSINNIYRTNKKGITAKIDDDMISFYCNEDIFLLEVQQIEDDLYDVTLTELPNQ

For assay [1], the target named is N-terminal-GST-tagged Abd-B-N (aa residues 313 to 493) (Drosophila) (UniProt P09087). Description: pull-down; in-vitro pulldown of bacterially expressed proteins: GST-tagged bait or GST alone, His-tagged prey; Western blot.
In assay [2] the target is GST-tagged Su(H) (Drosophila) (UniProt P28159). The assay is described as above.
Assay [3] deals with N-terminal-GST-tagged Abd-B-N (aa residues 313 to 493) (Drosophila) (UniProt P09087). Put plainly: pull-down; GST-tagged Abd-B or GST alone as bait; His-tagged Grh pulled down from bacterial lysate; Western blot; also with micrococcal nuclease treatment; performed as in ref. 13; only the target purified. In general terms: A western blot detects proteins with antibodies after separation by electrophoresis.

Results are given in words; binding and its absence hold for the method and conditions named. Binding seen in cells or lysates may run through a third protein. Some binding calls cover weakened binding; strength is not graded here.

As for “His-tagged Su(H) (from UniProt P28159 1-594)”, the binding result in assay [1] was “binds”.
In the case of “His tagged Grh (551–1333 aa) (from UniProt P13002 551-1333) (domain or fragment)”, the binding result in assay [2] and in assay [3] was “binds” throughout.
